Test results from publication PMC8287938, “Identification and structural analysis of the Schizosaccharomyces pombe SMN complex” (Nucleic Acids Research, 2021).
No constants are given. Whether binding was seen depends on the method and setting. Binding can be weak; no strength is given. For part of these data: Where a sequence is shown, tags or fusion partners need not be part of it. For part of these data: In cells and extracts the contact can be indirect.

Chains of the proteins cited; added tags and fusions are not shown. Lines headed by an entry give the natural chain unless they say otherwise; changes in a name come on top.
UniProt Q9USY8: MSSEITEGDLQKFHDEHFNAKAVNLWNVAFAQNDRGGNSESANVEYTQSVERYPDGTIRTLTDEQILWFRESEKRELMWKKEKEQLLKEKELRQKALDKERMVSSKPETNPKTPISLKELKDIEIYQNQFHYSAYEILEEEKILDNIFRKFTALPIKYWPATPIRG
UniProt G2TRR1: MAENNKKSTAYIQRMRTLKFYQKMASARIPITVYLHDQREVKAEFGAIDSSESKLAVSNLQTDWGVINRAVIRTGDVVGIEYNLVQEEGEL

Tests used:
His6-SpG8 (S. pombe) = His6-SpG8 (S. pombe) (UniProt Q9USY8); experiment: pull-down; co-expression in E. coli from polycistronic constructs, Ni-NTA purification through the His6-tagged subunit, SDS-PAGE
[1] = target: T1, His6-SpG2^ΔN80 (S. pombe) (UniProt P0CU08); experiment: as above
T1 sequence: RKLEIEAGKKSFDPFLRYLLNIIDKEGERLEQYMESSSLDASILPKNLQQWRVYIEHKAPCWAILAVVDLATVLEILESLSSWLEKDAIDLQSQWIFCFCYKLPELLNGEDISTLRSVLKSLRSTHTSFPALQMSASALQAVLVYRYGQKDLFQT

[2] = target: T2, SpSMN (two-hybrid fusion) (S. pombe) (UniProt Q09808); experiment: two-hybrid; pASΔΔ baits in CG1945 mated with pACT2st preys in Y187; growth on –Trp–Leu–His plates, 30°C, 3–5 days
T2 sequence: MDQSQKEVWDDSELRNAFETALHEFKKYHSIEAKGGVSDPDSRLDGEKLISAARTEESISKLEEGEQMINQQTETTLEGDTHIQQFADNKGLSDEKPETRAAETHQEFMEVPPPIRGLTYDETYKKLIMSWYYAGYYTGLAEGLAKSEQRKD

His6-SpSMN (S. pombe) = target: T3, His6-SpSMN (S. pombe) (UniProt Q09808); experiment: pull-down; co-expression in E. coli from polycistronic constructs, Ni-NTA purification through the His6-tagged subunit, SDS-PAGE
T3 sequence: T2 sequence

Substance | binding [1] | further results
SpG7 (untagged, E. coli) (from UniProt G2TRR1) |  | binding (His6-SpG8 (S. pombe)): binds
SpSMN^Δ36–119 (S. pombe) (domain or fragment) | binds | 
SpSMN^Δ36–119A134E (S. pombe) (domain or fragment) | binds | 
SpG8 (two-hybrid fusion) (from UniProt Q9USY8) |  | binding [2]: binds
SpSMN^Δ36–119S130D (S. pombe) (domain or fragment) | binds | 
SpG8 (untagged, E. coli) (S. pombe) |  | binding (His6-SpSMN (S. pombe)): binds
